In the supplement of paper PMC7858590:
± gives the standard deviation of the averaged measurements. The full ranking holds about 3,800 compounds; the median of “cell shape (eccentricity) Z-score vs DMSO control” is about 1.1, and the lowest 2% start at about -4.7. The list shows a part of the results.

System: human monocyte-derived macrophages (M0)
Experiment: cell shape (eccentricity) Z-score vs DMSO control; higher = more elongated, M2-like morphology
Settings: 20 µM; 24 h; macrophage state: M0 (M-CSF)

Compound	cell shape (Z-score)
COc1ccc(/C=C/C(=O)O[C@@H]2[C@@H](OC(C)=O)[C@@H](OC(C)=O)[C@H](O[C@H]3[C@@H]4C=CO[C@@H](O[C@@H]5O[C@H](CO)[C@@H](O)[C@H](O)[C@H]5O)[C@@H]4[C@@]4(CO)O[C@@H]34)O[C@H]2C)cc1	2.5
C[C@@H](NC(=O)C[C@@H]1CC[C@@H](NC(=O)CN2CCOCC2)[C@H](CO)O1)c1ccccc1	0.746
CCOC(=O)C1=C(C)NC(C)=C(C(=O)OC)C1c1cccc([N+](=O)[O-])c1 (stereo unspecified)	1.64
Cc1nc(=O)c2c([nH]1)CCSC2	1.44
COc1ccc(CCN(C)CCc2ccc(OC)c(OC)c2)cc1OC	3.04
C[C@@H]1O[C@@H](O[C@H]2[C@@H](Oc3cc(O)c4c(c3)O[C@H](c3ccc(O)cc3)CC4=O)O[C@H](CO)[C@@H](O)[C@@H]2O)[C@H](O)[C@H](O)[C@H]1O	2.15
CN1CC(=O)N2[C@H](c3ccc4c(c3)OCO4)c3[nH]c4ccccc4c3C[C@@H]2C1=O	-0.3
C=Cc1ccc(O[C@@H]2O[C@H](CO)[C@@H](O)[C@H](O)[C@H]2O[C@@H]2O[C@@H](C)[C@H](O)[C@@H](O)[C@H]2O)cc1	1.75
CC(C)c1ccc2c(c1)CCC1[C@](C)(C(=O)O)CCC[C@]21C (stereo partly specified)	2.33 ± 4.4
CC1CC(=O)C2=C(C1)C(Cl)C(O)C1(O)C2C(=O)c2cccc(O)c2C1O (stereo unspecified)	1.54 ± 0.099
COc1cc(C(=O)NCc2ccc(OCCN(C)C)cc2)cc(OC)c1OC	2.65
CSc1cc2c(cc1C(F)(F)F)N(C(=O)Nc1cccnc1)CC2	3.3
CN(C)CC[C@H](c1ccc(Cl)cc1)c1ccccn1	-0.907
Nc1ccc(S(=O)(=O)Nc2cnc3ccccc3n2)cc1	-2.7
CCCCCC/C=C\CCCCCCCc1cccc(O)c1C(=O)O	0.731 ± 1.7
Cc1sc(N)c(C(=O)c2cccc(C(F)(F)F)c2)c1C	0.163
COc1cc(C2c3c(cc(OC)c(O)c3O)CC(CO)C2CO[C@@H]2O[C@H](C(=O)O)[C@@H](O)[C@H](O)[C@H]2O)cc(OC)c1O (stereo partly specified)	2
CC(OC(=O)c1cccc(O)c1)C(=O)O (stereo unspecified)	2.46
C[C@]12CCC(=O)C=C1CC[C@@H]1C2[C@@H](O)C[C@@]2(C)C1CC[C@@H]2C(=O)CO (stereo partly specified)	-0.0908
COc1cc(C(=O)OCCCN2CCCN(CCCOC(=O)c3cc(OC)c(OC)c(OC)c3)CC2)cc(OC)c1OC	0.827 ± 1.5
CCc1cnn2c(NCc3ccc[n+]([O-])c3)cc(N3CCCC[C@H]3CCO)nc12	7
CCCCC(=O)O[C@]1(C(=O)CO)[C@@H](C)CC2C3CCC4=CC(=O)C=C[C@]4(C)[C@@]3(F)C(O)C[C@@]21C (stereo partly specified)	-2.07
CC(C)=CC1C(C(=O)O)C1(C)C (stereo unspecified)	2.13
NC(=NC(=O)c1nc(Cl)c(N)nc1N)NCc1ccccc1	1.1
CC1(C)CC[C@]2(C(=O)O[C@@H]3O[C@H](CO)[C@@H](O)[C@H](O)[C@H]3O)CC[C@]3(C)C(=CCC4[C@@]5(C)CC[C@H](OC6O[C@H](CO)[C@@H](O)[C@H](O[C@@H]7O[C@H](CO)[C@@H](O)[C@H](O)[C@H]7O)[C@H]6O)C(C)(C)C5CC[C@]43C)[C@@H]2C1 (stereo partly specified)	-0.36 ± 0.054
O=C(O)CCCC=CCC1COC(C(F)(F)F)OC1c1ccccc1O (stereo unspecified)	0.695

Part of the list above in order of count of non-hydrogen atoms, rising:
Compound	cell shape (Z-score)
CC(OC(=O)c1cccc(O)c1)C(=O)O (stereo unspecified)	2.46
Nc1ccc(S(=O)(=O)Nc2cnc3ccccc3n2)cc1	-2.7
O=C(O)CCCC=CCC1COC(C(F)(F)F)OC1c1ccccc1O (stereo unspecified)	0.695
CCCCC(=O)O[C@]1(C(=O)CO)[C@@H](C)CC2C3CCC4=CC(=O)C=C[C@]4(C)[C@@]3(F)C(O)C[C@@]21C (stereo partly specified)	-2.07

Next part:

Compound	cell shape (Z-score)
C=C1C(=O)O[C@@H]2CC=C(CCC(C)O)C(C)C[C@@H]12 (stereo partly specified)	1.71 ± 3.5
C[C@H]1[C@H](C)CC[C@]2(C(=O)O)CC[C@]3(C)C(=CCC4[C@@]5(C)C[C@@H](O)[C@H](O)[C@@](C)(CO)C5[C@H](O)C[C@]43C)[C@H]12 (stereo partly specified)	-0.92
CCOc1ccc2ccccc2c1NC(=O)[C@@H]1C(=O)N2C(C(=O)O)C(C)(C)S[C@H]12 (stereo partly specified)	1.89
Clc1ccccc1CN1CCc2sccc2C1	3.16
COc1c(-c2ccccc2)oc2c(OC)c(O)cc(O)c2c1=O	3.67
Nc1ccc(S(=O)(=O)Nc2nccs2)cc1	4.41
CC1=COC(O[C@@H]2O[C@H](CO)[C@@H](O)[C@H](O)[C@H]2O)C2C1CC(O)C2CO (stereo partly specified)	-1.3
COc1cc([C@H]2OC[C@H]3[C@@H]2CO[C@H]3c2ccc(OC)c(OC)c2)ccc1O	-0.964
O=C(Cc1ccccc1)NO	0.486
O=C(NC1CC1)c1cc(-c2cccs2)on1	-1.73
CC1(C)CC[C@]2(C(=O)O[C@@H]3O[C@H](CO)[C@@H](O)[C@H](O)[C@H]3O)CC[C@]3(C)C(=CCC4[C@@]5(C)C[C@H](O)[C@H](O[C@@H]6O[C@H](C(=O)O)[C@@H](O)[C@H](O)[C@H]6O)[C@@](C)(CO)C5CC[C@]43C)C2C1 (stereo partly specified)	0.273
COc1cc(O)cc2c1C(=O)OC(C)C2 (stereo unspecified)	3.06
O=C1Nc2ccc(Br)cc2/C1=C/c1cc2c([nH]1)CCCC2	1.17
CC(=O)Nc1cccc(-n2c(=O)n(C3CC3)c(=O)c3c(Nc4ccc(I)cc4F)n(C)c(=O)c(C)c32)c1	-0.597
CC(=O)OCC(=O)[C@@]1(O)CCC2C3CCC4=CC(=O)C=C[C@]4(C)[C@@]3(F)[C@@H](O)C[C@@]21C (stereo partly specified)	-1.89
OC1c2ccccc2-c2c3c(cc4c2C1NCC4)OCO3 (stereo unspecified)	-3.26
CN(CCc1ccc(Cl)c(Cl)c1)CC(O)COc1ccc(NS(C)(=O)=O)cc1 (stereo unspecified)	3.03
C[C@H]1CN([C@@H](C)CO)C(=O)Cc2cc(NC(=O)CCC(F)(F)F)ccc2O[C@H]1CN(C)S(=O)(=O)c1ccc(Cl)cc1	-3.66
CC1(C)CC[C@]2(C(=O)O)CC[C@]3(C)C(=CCC4[C@@]5(C)C[C@@H](O)[C@H](O)[C@@](C)(CO)C5CC[C@]43C)[C@@H]2[C@@H]1O (stereo partly specified)	-1.63
C[C@@H](NC(=O)c1ncnc(N)c1Cl)c1ncc(C(=O)Nc2cc(C(F)(F)F)c(Cl)cn2)s1	2.02
CCc1cc(Cl)c(OC)c(C(=O)NC[C@@H]2CCCN2CC)c1O	1.6
O=C(CCc1ccccc1)CC(CCc1ccccc1)OC1OC(COC2OC(CO)C(O)C(O)C2O)C(O)C(O)C1O (stereo unspecified)	0.466
CCCCNC(=O)c1ccc(Cl)cc1O	0.898
COc1c(O[C@@H]2O[C@H](C(=O)O)[C@@H](O)[C@H](O)[C@H]2O)cc(O)c2c(=O)cc(-c3ccccc3)oc12	-0.141
COc1cc2oc(-c3ccccc3)cc(=O)c2c(OC)c1OC	3.62
